# Some of the results follow.
# Chains of the proteins cited; added tags and fusions are not shown. Lines headed by an entry give the natural chain unless they say otherwise; changes in a name come on top.
# UniProt Q9NTJ3, whole entry, looked up: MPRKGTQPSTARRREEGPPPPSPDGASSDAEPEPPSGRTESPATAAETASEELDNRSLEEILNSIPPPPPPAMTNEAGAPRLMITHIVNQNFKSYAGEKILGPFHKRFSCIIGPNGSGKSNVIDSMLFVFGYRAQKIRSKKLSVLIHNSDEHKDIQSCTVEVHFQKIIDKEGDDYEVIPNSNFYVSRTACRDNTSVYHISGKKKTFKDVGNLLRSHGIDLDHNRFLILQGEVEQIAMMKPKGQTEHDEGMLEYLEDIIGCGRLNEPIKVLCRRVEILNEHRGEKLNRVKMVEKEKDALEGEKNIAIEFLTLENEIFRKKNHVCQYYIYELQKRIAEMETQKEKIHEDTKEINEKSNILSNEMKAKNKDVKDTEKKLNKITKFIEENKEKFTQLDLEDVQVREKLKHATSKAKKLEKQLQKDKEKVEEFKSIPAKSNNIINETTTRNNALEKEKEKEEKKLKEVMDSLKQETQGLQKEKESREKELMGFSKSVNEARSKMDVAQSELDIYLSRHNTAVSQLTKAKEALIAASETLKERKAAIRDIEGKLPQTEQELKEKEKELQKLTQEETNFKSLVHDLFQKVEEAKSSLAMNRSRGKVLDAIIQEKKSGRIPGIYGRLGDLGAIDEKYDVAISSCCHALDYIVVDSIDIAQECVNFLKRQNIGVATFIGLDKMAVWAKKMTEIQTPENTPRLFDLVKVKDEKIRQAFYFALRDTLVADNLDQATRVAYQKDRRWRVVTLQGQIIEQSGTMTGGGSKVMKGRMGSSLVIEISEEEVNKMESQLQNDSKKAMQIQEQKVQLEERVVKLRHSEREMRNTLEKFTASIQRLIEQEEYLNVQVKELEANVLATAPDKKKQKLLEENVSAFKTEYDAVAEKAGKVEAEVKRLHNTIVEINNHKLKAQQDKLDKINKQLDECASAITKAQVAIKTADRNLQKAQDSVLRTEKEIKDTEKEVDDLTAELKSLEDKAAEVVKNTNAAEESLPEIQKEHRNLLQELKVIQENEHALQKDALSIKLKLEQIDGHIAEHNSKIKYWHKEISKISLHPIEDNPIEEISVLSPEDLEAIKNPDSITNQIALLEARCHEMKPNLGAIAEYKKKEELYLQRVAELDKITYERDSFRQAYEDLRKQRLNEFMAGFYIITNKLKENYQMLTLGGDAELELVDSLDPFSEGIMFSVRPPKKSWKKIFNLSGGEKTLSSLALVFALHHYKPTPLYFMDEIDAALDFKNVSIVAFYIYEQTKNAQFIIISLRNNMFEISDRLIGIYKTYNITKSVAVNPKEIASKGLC
# UniProt Q8IW52: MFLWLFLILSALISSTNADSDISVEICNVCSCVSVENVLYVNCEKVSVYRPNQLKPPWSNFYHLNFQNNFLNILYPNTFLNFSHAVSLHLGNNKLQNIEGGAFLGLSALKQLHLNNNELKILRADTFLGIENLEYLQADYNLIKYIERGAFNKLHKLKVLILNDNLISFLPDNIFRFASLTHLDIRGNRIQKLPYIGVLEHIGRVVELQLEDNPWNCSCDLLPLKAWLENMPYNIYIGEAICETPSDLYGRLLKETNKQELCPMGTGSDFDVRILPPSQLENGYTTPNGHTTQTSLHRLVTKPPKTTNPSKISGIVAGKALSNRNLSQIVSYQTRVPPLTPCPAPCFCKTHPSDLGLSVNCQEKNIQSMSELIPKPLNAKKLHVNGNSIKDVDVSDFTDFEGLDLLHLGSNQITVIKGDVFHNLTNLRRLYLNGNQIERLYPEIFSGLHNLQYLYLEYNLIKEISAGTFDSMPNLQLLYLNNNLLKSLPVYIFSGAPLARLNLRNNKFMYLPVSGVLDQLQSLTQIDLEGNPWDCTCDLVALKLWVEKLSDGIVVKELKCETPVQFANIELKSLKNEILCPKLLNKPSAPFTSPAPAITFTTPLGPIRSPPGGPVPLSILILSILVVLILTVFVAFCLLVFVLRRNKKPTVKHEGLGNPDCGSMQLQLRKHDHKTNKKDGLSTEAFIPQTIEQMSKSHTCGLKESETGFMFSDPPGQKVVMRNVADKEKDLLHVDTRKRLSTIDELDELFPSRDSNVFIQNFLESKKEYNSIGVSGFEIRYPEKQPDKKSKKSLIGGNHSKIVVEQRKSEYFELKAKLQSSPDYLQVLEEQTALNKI
# UniProt Q13485: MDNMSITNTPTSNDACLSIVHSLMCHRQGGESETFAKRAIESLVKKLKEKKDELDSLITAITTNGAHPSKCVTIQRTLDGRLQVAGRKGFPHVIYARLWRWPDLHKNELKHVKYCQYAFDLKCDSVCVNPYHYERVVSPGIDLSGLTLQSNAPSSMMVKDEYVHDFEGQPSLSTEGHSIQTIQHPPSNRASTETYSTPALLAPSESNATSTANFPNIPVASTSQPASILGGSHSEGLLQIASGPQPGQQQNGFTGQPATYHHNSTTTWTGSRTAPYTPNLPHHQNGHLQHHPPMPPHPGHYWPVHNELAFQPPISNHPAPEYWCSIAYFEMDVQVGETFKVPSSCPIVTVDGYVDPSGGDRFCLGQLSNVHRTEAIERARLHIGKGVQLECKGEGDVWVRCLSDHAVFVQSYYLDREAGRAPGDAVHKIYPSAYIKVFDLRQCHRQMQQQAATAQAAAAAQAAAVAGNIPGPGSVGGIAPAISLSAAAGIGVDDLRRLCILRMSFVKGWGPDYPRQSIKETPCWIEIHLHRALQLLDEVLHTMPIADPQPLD
# UniProt Q14683: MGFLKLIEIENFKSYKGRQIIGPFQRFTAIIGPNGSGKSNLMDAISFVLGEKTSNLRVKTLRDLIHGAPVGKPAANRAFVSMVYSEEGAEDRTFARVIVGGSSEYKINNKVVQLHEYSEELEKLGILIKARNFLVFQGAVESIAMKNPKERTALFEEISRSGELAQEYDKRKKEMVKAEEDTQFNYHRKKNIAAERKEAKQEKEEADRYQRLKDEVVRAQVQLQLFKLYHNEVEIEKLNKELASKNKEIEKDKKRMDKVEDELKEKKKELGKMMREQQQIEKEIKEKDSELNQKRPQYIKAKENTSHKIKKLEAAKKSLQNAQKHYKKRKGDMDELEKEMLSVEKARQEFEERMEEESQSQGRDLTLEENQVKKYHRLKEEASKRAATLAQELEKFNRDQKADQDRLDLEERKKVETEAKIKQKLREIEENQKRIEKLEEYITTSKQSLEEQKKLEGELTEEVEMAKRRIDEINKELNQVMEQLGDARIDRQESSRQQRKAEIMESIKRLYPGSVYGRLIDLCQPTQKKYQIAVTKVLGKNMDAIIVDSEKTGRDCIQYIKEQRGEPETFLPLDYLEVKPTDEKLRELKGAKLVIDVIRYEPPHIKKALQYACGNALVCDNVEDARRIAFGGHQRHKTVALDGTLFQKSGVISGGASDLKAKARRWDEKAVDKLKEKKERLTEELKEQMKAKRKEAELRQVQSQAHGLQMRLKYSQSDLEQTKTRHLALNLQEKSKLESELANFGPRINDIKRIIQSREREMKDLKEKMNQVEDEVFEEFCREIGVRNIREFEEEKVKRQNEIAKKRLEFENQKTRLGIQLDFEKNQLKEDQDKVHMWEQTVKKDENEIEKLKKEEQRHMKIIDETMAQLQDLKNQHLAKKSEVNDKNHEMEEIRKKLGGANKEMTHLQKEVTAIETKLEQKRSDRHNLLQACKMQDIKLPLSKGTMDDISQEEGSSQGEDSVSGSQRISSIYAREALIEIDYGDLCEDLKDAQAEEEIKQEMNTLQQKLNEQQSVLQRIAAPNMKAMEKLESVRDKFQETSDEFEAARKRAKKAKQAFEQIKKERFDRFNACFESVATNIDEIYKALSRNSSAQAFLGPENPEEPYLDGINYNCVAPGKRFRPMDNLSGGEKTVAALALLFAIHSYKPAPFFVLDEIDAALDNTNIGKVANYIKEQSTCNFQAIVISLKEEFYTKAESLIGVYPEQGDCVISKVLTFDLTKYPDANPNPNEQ
# UniProt Q9NXE4: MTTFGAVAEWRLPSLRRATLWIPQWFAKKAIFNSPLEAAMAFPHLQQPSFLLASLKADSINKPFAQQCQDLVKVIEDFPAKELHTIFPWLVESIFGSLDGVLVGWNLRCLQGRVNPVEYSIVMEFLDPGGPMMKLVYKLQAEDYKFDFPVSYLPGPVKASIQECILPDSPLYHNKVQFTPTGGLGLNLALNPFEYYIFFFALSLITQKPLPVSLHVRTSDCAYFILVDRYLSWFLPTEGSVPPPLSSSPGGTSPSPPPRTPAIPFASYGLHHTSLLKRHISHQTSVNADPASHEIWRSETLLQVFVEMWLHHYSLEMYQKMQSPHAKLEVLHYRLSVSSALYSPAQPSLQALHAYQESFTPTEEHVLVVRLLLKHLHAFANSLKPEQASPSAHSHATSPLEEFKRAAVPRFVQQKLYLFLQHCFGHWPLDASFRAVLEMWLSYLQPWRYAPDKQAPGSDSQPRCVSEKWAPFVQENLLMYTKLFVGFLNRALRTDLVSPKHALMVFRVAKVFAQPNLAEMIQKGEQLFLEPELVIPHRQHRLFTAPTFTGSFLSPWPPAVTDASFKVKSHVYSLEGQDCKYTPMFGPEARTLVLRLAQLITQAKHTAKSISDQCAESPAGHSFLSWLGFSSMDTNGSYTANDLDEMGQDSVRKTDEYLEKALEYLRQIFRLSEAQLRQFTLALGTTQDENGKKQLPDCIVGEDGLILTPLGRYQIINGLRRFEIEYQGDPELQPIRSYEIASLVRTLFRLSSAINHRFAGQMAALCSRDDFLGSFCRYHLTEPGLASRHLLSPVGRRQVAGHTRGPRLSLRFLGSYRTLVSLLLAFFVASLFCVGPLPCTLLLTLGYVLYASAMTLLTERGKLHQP
# UniProt O60264, whole entry, looked up: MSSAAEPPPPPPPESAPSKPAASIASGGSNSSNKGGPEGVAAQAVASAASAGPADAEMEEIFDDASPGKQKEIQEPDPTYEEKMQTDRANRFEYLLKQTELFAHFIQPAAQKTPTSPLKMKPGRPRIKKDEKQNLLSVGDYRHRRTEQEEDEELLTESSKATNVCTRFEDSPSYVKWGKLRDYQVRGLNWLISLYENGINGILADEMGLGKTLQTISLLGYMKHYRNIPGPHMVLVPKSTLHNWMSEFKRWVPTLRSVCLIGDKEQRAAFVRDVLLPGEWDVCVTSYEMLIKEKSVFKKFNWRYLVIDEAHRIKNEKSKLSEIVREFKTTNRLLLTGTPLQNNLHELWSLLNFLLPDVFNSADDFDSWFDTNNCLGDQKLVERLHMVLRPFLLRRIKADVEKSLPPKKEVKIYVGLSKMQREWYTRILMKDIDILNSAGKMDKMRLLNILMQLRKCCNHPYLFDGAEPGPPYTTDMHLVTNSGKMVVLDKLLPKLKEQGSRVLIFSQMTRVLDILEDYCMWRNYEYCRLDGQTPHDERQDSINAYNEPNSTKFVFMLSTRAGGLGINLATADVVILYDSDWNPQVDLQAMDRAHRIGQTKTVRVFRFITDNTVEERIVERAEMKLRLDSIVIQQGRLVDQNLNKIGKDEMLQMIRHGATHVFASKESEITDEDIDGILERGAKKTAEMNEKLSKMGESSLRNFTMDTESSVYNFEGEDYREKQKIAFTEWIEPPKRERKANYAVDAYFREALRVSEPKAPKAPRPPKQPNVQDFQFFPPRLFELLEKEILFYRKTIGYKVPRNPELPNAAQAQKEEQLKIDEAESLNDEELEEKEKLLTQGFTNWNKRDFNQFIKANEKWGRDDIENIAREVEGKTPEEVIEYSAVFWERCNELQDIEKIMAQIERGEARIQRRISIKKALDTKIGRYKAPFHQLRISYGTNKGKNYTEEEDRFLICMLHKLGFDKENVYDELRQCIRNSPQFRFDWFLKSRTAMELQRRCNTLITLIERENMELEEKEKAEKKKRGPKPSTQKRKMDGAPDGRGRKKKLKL
# UniProt Q9BWU0: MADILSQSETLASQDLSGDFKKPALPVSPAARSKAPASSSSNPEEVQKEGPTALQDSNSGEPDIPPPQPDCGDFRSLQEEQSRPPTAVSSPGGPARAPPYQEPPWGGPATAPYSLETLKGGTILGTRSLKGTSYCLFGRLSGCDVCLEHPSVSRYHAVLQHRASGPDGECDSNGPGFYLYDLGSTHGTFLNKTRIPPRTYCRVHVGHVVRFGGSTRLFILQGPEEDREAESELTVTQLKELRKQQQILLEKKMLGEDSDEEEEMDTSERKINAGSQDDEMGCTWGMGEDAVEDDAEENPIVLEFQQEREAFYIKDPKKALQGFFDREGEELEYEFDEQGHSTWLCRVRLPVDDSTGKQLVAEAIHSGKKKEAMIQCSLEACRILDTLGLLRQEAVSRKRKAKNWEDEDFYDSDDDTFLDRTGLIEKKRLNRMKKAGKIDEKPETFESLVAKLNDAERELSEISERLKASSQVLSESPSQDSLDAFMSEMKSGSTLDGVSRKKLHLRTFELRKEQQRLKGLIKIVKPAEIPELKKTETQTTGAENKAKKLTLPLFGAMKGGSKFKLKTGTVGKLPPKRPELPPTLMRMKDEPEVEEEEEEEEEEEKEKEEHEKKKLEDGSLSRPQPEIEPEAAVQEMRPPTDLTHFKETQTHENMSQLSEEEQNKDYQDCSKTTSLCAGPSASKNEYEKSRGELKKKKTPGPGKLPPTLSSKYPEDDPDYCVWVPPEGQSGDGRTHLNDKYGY
# Compound: Cc1cc(ccc1-c1ccccc1)C(=O)N1CCCN(CC1)C(=O)CCl [compound 10]
# Assay: probe-labelled cysteine peptide fold change vs DMSO (competition) (log2 fold change); higher = less target engagement (more negative = stronger competition)
# Details: THP-1, incubation time: 4 h
# 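Further: competitive profiling in live THP-1 cells: cysteine peptides tagged with an iodoacetamide desthiobiotin (IA-DTB) probe, intensity after compound treatment relative to DMSO-treated cells.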
Target,probe-labelled cysteine peptide fold change (10 µM),probe-labelled cysteine peptide fold change (50 µM)
SNRNP70_P08621_39_HHNQPYCGIAPYIR (UniProt P08621),-0.0761,-0.168
SLC35F6_Q8N357_36_WADNFMAEGCGGSK (UniProt Q8N357),-0.213,-0.248
SMARCC1_Q92922_761_VDPTYGLESSCIAGTGPDEPEK (UniProt Q92922),0.0416,0.51
SMC4_Q9NTJ3_323_NHVCQYYIYELQK (UniProt Q9NTJ3),0.0817,-0.109
SMC5_Q8IY18_417_ALCEGEIIDK (UniProt Q8IY18),0.116,0.0585
SMARCC2_Q8TAQ2_635_TQDECILHFLR (UniProt Q8TAQ2),0.0634,0.139
SLITRK4_Q8IW52_661_HEGLGNPDCGSMQLQLR (UniProt Q8IW52),-0.281,-0.498
SND1_Q7KZF4_826+837_DIQNTQCLLNVEHLSAGCPHVTLQFADSK (UniProt Q7KZF4),0.116,-0.205
SMAD4_Q13485_523_ETPCWIEIHLHR (UniProt Q13485),-0.0491,-0.057
SMC5_Q8IY18_582_ELFDAPDPVMSYLCCQYHIHEVPVGTEK (UniProt Q8IY18),0.181,0.215
SMC5_Q8IY18_726_LMEQDTCNLEEEERK (UniProt Q8IY18),-0.184,-0.208
SMCHD1_A6NHR9_444_YHPFLYDRETYPDDPCFPSK (UniProt A6NHR9),-0.159,-0.206
SMN2_Q16637_98_CSAIWSEDGCIYPATIASIDFK (UniProt Q16637),0.0843,0.0664
SMC4_Q9NTJ3_1083_CHEMKPNLGAIAEYK (UniProt Q9NTJ3),-0.146,-0.316
SMC1A_Q14683_987_EALIEIDYGDLCEDLK (UniProt Q14683),-0.289,-0.166
SLK_Q9H2G2_86_VIDTKSEEELEDYMVEIDILASCDHPNIVK (UniProt Q9H2G2),0.0586,-0.47
SMPD4_Q9NXE4_221_TSDCAYFILVDR (UniProt Q9NXE4),0.216,0.17
SMCHD1_A6NHR9_444_ETYPDDPCFPSK (UniProt A6NHR9),-0.204,0.0464
SMC3_Q9UQE7_1134_CDPAPFYLFDEIDQALDAQHRK (UniProt Q9UQE7),0.188,0.33
SNRNP200_O75643_1278_WLSCETQLPVSFR (UniProt O75643),0.171,0.334
SLMAP_Q14BN4_641_CQQCEDQQR (UniProt Q14BN4),0.124,0.22
SLC44A1_Q8WWI5_117_SVALCVAACPR (UniProt Q8WWI5),-0.133,-0.0893
SNRNP200_O75643_428_CQLPDGSFR (UniProt O75643),-0.244,-0.0328
SMARCC1_Q92922_119_AGGALCHILGAAYK (UniProt Q92922),-0.116,0.152

Target,probe-labelled cysteine peptide fold change (10 µM),probe-labelled cysteine peptide fold change (50 µM)
SLC7A7_Q9UM01_349_EGHLPDAICMIHVER (UniProt Q9UM01),0.0327,-0.262
SNRNP200_O75643_302_TASDDRECENQLVLLLGFNTFDFIK (UniProt O75643),0.114,0.668
SMPD4_Q9NXE4_766_FAGQMAALCSR (UniProt Q9NXE4),-0.138,-0.428
SMARCA5_O60264_457_CCNHPYLFDGAEPGPPYTTDMHLVTNSGK (UniProt O60264),-0.00404,0.0338
SLK_Q9H2G2_1138_DLQLQCEANVR (UniProt Q9H2G2),0.0336,0.0461
SMARCC2_Q8TAQ2_91_AGGSLCHILAAAYK (UniProt Q8TAQ2),-0.115,0.0758
SMCHD1_A6NHR9_1018_IEIPSCK (UniProt A6NHR9),-0.18,0.0615
SMPD2_O60906_188_KADVVLLCGDLNMHPEDLGCCLLK (UniProt O60906),-0.0882,0.253
SNRNP200_O75643_1278_VVSDRWLSCETQLPVSFR (UniProt O75643),-0.0123,-0.0331
SMC1A_Q14683_1180_EQSTCNFQAIVISLK (UniProt Q14683),0.0747,0.0957
SMG5_Q9UPR3_109_STLECAYR (UniProt Q9UPR3),-0.0866,-0.12
SMAD3_P84022_109_AMELCEFAFNMK (UniProt P84022),0.217,0.321
SNRNP40_Q96DI7_168_RGPQLVCTGSDDGTVK (UniProt Q96DI7),-0.149,-9.5e-06
SLC7A1_P30825_628_TPDGNLDQCK (UniProt P30825),-0.301,0.0792
SMAD3_P84022_394_QTVTSTPCWIELHLNGPLQWLDK (UniProt P84022),0.0484,-0.102
SMYD4_Q8IYR2_501_HMLQLQCNAQAMTTIQHTGPK (UniProt Q8IYR2),0.284,0.0362
SMARCA5_O60264_1001_CNTLITLIERENMELEEK (UniProt O60264),0.24,-0.297
SLITRK4_Q8IW52_580_NEILCPK (UniProt Q8IW52),-0.2,-0.364
SNRPB_P14678_19_CILQDGR (UniProt P14678),0.117,0.0825
SMCHD1_A6NHR9_985_FSGAPNLPVYVVDCSSSGTSILTGSAIQVQNIKK (UniProt A6NHR9),0.018,-0.353
SLX4IP_Q5VYV7_299_NCSSAEDFDHHGR (UniProt Q5VYV7),-0.127,-0.368
SMG1_Q96Q15_2738_LKQEAVTVPVCEDQLK (UniProt Q96Q15),0.0346,-0.212
SLC7A6OS_Q96CW6_166_TSDPDVILCNSVELIR (UniProt Q96CW6),-0.374,-0.146
SNRNP200_O75643_428_RCQLPDGSFR (UniProt O75643),-0.17,0.174

Target,probe-labelled cysteine peptide fold change (10 µM),probe-labelled cysteine peptide fold change (50 µM)
SLC4A2_P04920_1215_CLDANEAEPVFDER (UniProt P04920),0.0795,0.42
SNRNP200_O75643_588_EEISATQIIVCTPEK (UniProt O75643),0.155,0.273
SMAD4_Q13485_391_GVQLECK (UniProt Q13485),0.18,0.029
SLC4A1AP_Q9BWU0_435_EAMIQCSLEACR (UniProt Q9BWU0),0.124,-0.25
SLFN11_Q7Z7L1_791_YLTVEQIMTCVADTCRR (UniProt Q7Z7L1),-0.0539,-0.577
SLK_Q9H2G2_204_DSFIGTPYWMAPEVVMCETSK (UniProt Q9H2G2),-0.196,-0.141
SND1_Q7KZF4_440_TCATVTIGGINIAEALVSK (UniProt Q7KZF4),0.165,0.0227
SMAD4_Q13485_363_FCLGQLSNVHR (UniProt Q13485),0.184,0.462
SLC44A1_Q8WWI5_98_YVFFLDPCNLDLINR (UniProt Q8WWI5),0.0771,0.185
SNRPD2_P62316_63_HCNMVLENVK (UniProt P62316),0.103,-0.0621
SMAD5_Q99717_378_IPSSCSLK (UniProt Q99717),-0.106,-0.185
SMCHD1_A6NHR9_1751_IAHLAQIEDDRAAMVISWHLASDMDCVVTLTTDAAR (UniProt A6NHR9),0.225,0.259
SLU7_O95391_455_YSYCTGEAGK (UniProt O95391),-0.102,0.172
SMCHD1_A6NHR9_492_LIPYTSVEDFDWCTPPK (UniProt A6NHR9),-0.286,0.017
SMYD3_Q9H7B4_263_DQYCFECDCFR (UniProt Q9H7B4),-0.041,-0.0538
SMG9_Q9H0W8_380_EDFCPR (UniProt Q9H0W8),-0.575,-0.936
SLC44A1_Q8WWI5_113_SVALCVAACPR (UniProt Q8WWI5),0.0475,-0.0376
SNRNP200_O75643_1127_RMWQSMCPLR (UniProt O75643),-0.12,0.284
SNRPB_P14678_43+45_HMNLILCDCDEFR (UniProt P14678),-0.0482,-0.0531
SMU1_Q2TAY7_448_EGGDFVCCALSPR (UniProt Q2TAY7),0.0607,-0.298
SLC4A1AP_Q9BWU0_399_ALQGFFDREGEELEYEFDEQGHSTWLCR (UniProt Q9BWU0),0.228,0.0621
SND1_Q7KZF4_837_DIQNTQCLLNVEHLSAGCPHVTLQFADSK (UniProt Q7KZF4),0.17,-0.228
SNRNP40_Q96DI7_168_GPQLVCTGSDDGTVK (UniProt Q96DI7),-0.00336,0.0777
SMC5_Q8IY18_393_TTENCENLQPQIDAITNDLRR (UniProt Q8IY18),-0.0839,-0.208

# Source: the supplement of paper PMC12067093, “Discovery and optimisation of a covalent ligand for TRIM25 and its application to targeted protein ubiquitination” (Chemical Science, 2025)
